Experimental data taken from article PMC10235067, “Increased renal elimination of endogenous and synthetic pyrimidine nucleosides in concentrative nucleoside transporter 1 deficient mice” (Nature Communications, 2023).
Values joined by “and” are separate entries in the source; they are usually repeats but may differ in a detail not shown here. Equal values may be shown once.

System: CNT1
Experiment: Untargeted metabolomics of Slc28a1-/- vs Slc28a1+/+ mouse urine (24 h, ad libitum)
Conditions: Slc28a1-/- / Slc28a1+/+

Question: `CCCCCCc1ccc(CCCCCCCC(=O)O)o1` [5-Hexyl-2-furanoctanoic acid] was tested. Which “Fold Change” value did it give?
Answer: 6.7762

Question: And the “log2(FC)” value?
Answer: 2.7605

Question: What does the source list for `N[C@@H](Cc1c[nH]c2ccc(O)cc12)C(=O)O` [5-Hydroxy-L-tryptophan]?
Answer: Fold Change: 1.5232; log2(FC): 0.6071

Question: Which “Fold Change” value does the source give for `CC=CCCC(O)CCCC(=O)OC(CC(=O)[O-])C[N+](C)(C)C` (stereo not shown) [5-Hydroxydec-8-enoylcarnitine] here?
Answer: 0.1788

Question: What about the “log2(FC)” value of the same compound?
Answer: -2.4833

Question: For `Cc1cn([C@H]2C[C@H](O)[C@@H](CO)O2)c(=O)nc1N` [5-Methyldeoxycytidine], which “Fold Change” value is on record?
Answer: 2.0491

Question: And the “log2(FC)” value?
Answer: 1.035

Question: `CCC1=CCC(=O)O1` [5-ethyl-(3H)-furan-2-one] was tested. Which “Fold Change” value did it give?
Answer: 4.0037

Question: What about the “log2(FC)” value of the same compound?
Answer: 2.0013

Question: Which results are given for `CCC=CCCCC(=O)NCC(=O)O` [5-octenoylglycine]?
Answer: Fold Change: 0.4132; log2(FC): -1.2752

Question: Which results are given for `C=C=CCCCCC(=O)NCC(=O)O` [6,7-octadienoylglycine]?
Answer: Fold Change: 1.548; log2(FC): 0.6304

Question: With `CC(=O)NCCCC(=O)CC(=O)O` [6-Acetamido-3-oxohexanoic acid] as the compound, how does the “Fold Change” value read?
Answer: 0.6215

Question: What about the “log2(FC)” value of the same compound?
Answer: -0.6862

Question: Which “Fold Change” value does the source give for `COc1cc2cc[nH]c2cc1O[C@@H]1O[C@H](C(=O)O)[C@@H](O)[C@H](O)[C@H]1O` [6-Hydroxy-5-methoxyindole glucuronide] here?
Answer: 32.653

Question: What about the “log2(FC)” value of the same compound?
Answer: 5.0292

Question: Which results are given for `CC=CC(O)CCCCC(=O)OC(CC(=O)[O-])C[N+](C)(C)C` (stereo not shown) [6-Hydroxynon-7-enoylcarnitine]?
Answer: Fold Change: 0.3764; log2(FC): -1.4097

Question: With `C[C@]12CC[C@@H]3c4ccc(O)cc4C(=O)C[C@H]3[C@@H]1C[C@@H](O)[C@@H]2O` [6-Ketoestriol] as the compound, how does the “Fold Change” value read?
Answer: 0.6645

Question: What about the “log2(FC)” value of the same compound?
Answer: -0.5897

Question: `O=C1CCCC(C2CC(CO)C3CC(O)CCN3C2)N1` (stereo not shown) [6-[8-Hydroxy-1-(hydroxymethyl)octahydro-2H-quinolizin-3-yl]-2-piperidinone] was tested. Which “Fold Change” value did it give?
Answer: 8.603

Question: And the “log2(FC)” value?
Answer: 3.1048

Question: Which results are given for `O=c1cc(-c2ccc(O)cc2)oc2cc(O)ccc12` [7,4'-Dihydroxyflavone]?
Answer: Fold Change: 0.09391; log2(FC): -3.4126

Question: How did the “Fold Change” value turn out when `Cc1cc2ccc(=O)oc2cc1O` [7-Hydroxy-6-methyl-2H-1-benzopyran-2-one] was run?
Answer: 0.01617

Question: What about the “log2(FC)” value of the same compound?
Answer: -5.9507

Question: What does the source list for `Cn1cnc2nc[nH]c(=O)c21` [7-Methylhypoxanthine]?
Answer: Fold Change: 1.5058; log2(FC): 0.5906

Question: For `CC(O)=CCCCCC(=O)NCC(=O)O` [7-hydroxyoct-6-enoylglycine], which “Fold Change” value is on record?
Answer: 3.2696

Question: And the “log2(FC)” value?
Answer: 1.7091

Question: For `C=C(O)CCCCCC(=O)NCC(=O)O` [7-hydroxyoct-7-enoylglycine], which “Fold Change” value is on record?
Answer: 1.9653

Question: What about the “log2(FC)” value of the same compound?
Answer: 0.9748

Question: `C[C@]12CC[C@@H]3c4ccc(O)cc4C[C@@H](O)[C@H]3[C@@H]1CC[C@@H]2O` [7alpha-hydroxyestradiol] was tested. Which “Fold Change” value did it give?
Answer: 22.256

Question: And the “log2(FC)” value?
Answer: 4.4761

Question: With `CCCCC[C@H](O)/C=C/[C@H]1CCC(=O)[C@@H]1CCCCCCC(=O)O` [11-Deoxy-PGE1] as the compound, how does the “Fold Change” value read?
Answer: 1417.4

Question: What about the “log2(FC)” value of the same compound?
Answer: 10.469

Question: Which results are given for `C[C@]12CCC(=O)C=C1CC[C@@H]1[C@@H]2CC[C@@]2(C)[C@H]1CC[C@]2(O)C(=O)CO` [11-Deoxycortisol]?
Answer: Fold Change: 21.853; log2(FC): 4.4498

Question: For `C=CCCCCCCCCCC(=O)O` [11-Dodecenoic acid], which “Fold Change” value is on record?
Answer: 0.1304

Question: What about the “log2(FC)” value of the same compound?
Answer: -2.9388

Question: Which results are given for `COC(=O)[C@@H]1[C@H]2C[C@H]3c4[nH]c5cc(O)ccc5c4CCN3C[C@@H]2CC[C@@H]1O` [11-Hydroxyyohimbine]?
Answer: Fold Change: 0.04706; log2(FC): -4.4092

Question: Which results are given for `C[C@]12CCC(=O)C=C1CC[C@@H]1[C@@H]2[C@@H](O)C[C@@]2(C=O)[C@H]1CC[C@]2(O)C(=O)CO` [18-Oxocortisol]?
Answer: Fold Change: 19178; log2(FC): 14.227

Question: With `CC/C=C/C=C/C=C\CC(=O)OC(CC(=O)[O-])C[N+](C)(C)C` (stereo not shown) [(3Z,5E,7E)-Decatrienoylcarnitine] as the compound, how does the “Fold Change” value read?
Answer: 2E+00 and 2.2575

Question: What about the “log2(FC)” value of the same compound?
Answer: 1.2 and 1.1747

Question: How did the “Fold Change” value turn out when `CCC/C=C\CCCCC(O)CC(=O)OC(CC(=O)[O-])C[N+](C)(C)C` (stereo not shown) [(8Z)-3-Hydroxydodec-8-enoylcarnitine] was run?
Answer: 4E+00 and 4.4617

Question: And the “log2(FC)” value?
Answer: 2.2 and 2.1576

Question: With `C[C@]1(C(=O)O)CCC[C@]2(C)c3cc(O)ccc3CC[C@@H]12` [(+)-podocarpic acid] as the compound, how does the “Fold Change” value read?
Answer: 0.7291

Question: What about the “log2(FC)” value of the same compound?
Answer: -0.4558

Question: For `C=C/C=C\CCCC` [(Z)-1,3-Octadiene], which “Fold Change” value is on record?
Answer: 3E-01 and 0.2575

Question: What about the “log2(FC)” value of the same compound?
Answer: -2.0 and -1.9576

Question: Which results are given for `CC(=O)N[C@@H](CS)C(=O)O` [Acetylcysteine]?
Answer: Fold Change: 2E-01 and 0.2203; log2(FC): -2.2 and -2.1827

Question: What does the source list for `Nc1ncnc2[nH]cnc12` [Adenine]?
Answer: Fold Change: 2.0324; log2(FC): 1.0232

Question: How did the “Fold Change” value turn out when `CCCCCOC(=O)c1ccccc1O` [Amyl salicylate] was run?
Answer: 0.5439

Question: What about the “log2(FC)” value of the same compound?
Answer: -0.8785

Question: What does the source list for `CCOC(=O)[C@@H](N)CCCN=C(N)N` [Arginine, ethyl ester]?
Answer: Fold Change: 1.6362; log2(FC): 0.7104

Question: Which results are given for `CCCC(N)N` [Butane-1,1-diamine]?
Answer: Fold Change: 3E-01 and 0.266; log2(FC): -1.9 and -1.9103

Question: Which results are given for `C/C=C/C/C=C/CCC(=O)[C@H]1O[C@H]1C(N)=O` [Cerulenin]?
Answer: Fold Change: 1.3724; log2(FC): 0.4567

Question: `COc1ccc([C@@H]2[C@@H](O)[C@H](O)[C@@H](C)N2C)cc1OC` [Codonopsine] was tested. Which “Fold Change” value did it give?
Answer: 2.3874

Question: And the “log2(FC)” value?
Answer: 1.2554

Question: How did the “Fold Change” value turn out when `O=C1CCCCC1` [Cyclohexanone] was run?
Answer: 4E-01 and 0.4381

Question: What about the “log2(FC)” value of the same compound?
Answer: -1.2 and -1.1905

Question: Which results are given for `O=C1CCCC1` [Cyclopentanone]?
Answer: Fold Change: 4E-01 and 0.4495; log2(FC): -1.2 and -1.1538

Question: With `Nc1cc[nH]c(=O)n1` [Cytosine] as the compound, how does the “Fold Change” value read?
Answer: 1.6366

Question: And the “log2(FC)” value?
Answer: 0.7107

Question: Which “Fold Change” value does the source give for `C[C@@H](O)[C@@H](O)c1cnc2nc(N)[nH]c(=O)c2n1` [D-Biopterin] here?
Answer: 21.907

Question: And the “log2(FC)” value?
Answer: 4.4533

Question: Which “Fold Change” value does the source give for `O=C(O)[C@@H](O)[C@H]1OC(=O)[C@H](O)[C@H]1O` [D-Glucaro-1,4-lactone] here?
Answer: 0.4359

Question: And the “log2(FC)” value?
Answer: -1.1978

Question: For `C[N+](C)(C)CC(CC(=O)[O-])OC(=O)CCCCCC=CCC(=O)O` (stereo not shown) [Dec-7-enedioylcarnitine], which “Fold Change” value is on record?
Answer: 2.1023

Question: What about the “log2(FC)” value of the same compound?
Answer: 1.072

Question: For `C[N+](C)(C)CC(CC(=O)[O-])OC(=O)CC=CC=CC=CCC(=O)O` (stereo not shown) [Deca-3,5,7-trienedioylcarnitine], which “Fold Change” value is on record?
Answer: 3.0771

Question: And the “log2(FC)” value?
Answer: 1.6216

Question: For `O=C1OC(C(O)CO)C(=O)C1=O` (stereo not shown) [Dehydroascorbic acid], which “Fold Change” value is on record?
Answer: 0.4128

Question: What about the “log2(FC)” value of the same compound?
Answer: -1.2765

Question: For `Nc1ccn([C@H]2C[C@H](O)[C@@H](CO)O2)c(=O)n1` [Deoxycytidine], which “Fold Change” value is on record?
Answer: 2.6792

Question: What about the “log2(FC)” value of the same compound?
Answer: 1.4218

Question: Which results are given for `CCC1(CC)COC(=O)NC1=O` [Diethadione]?
Answer: Fold Change: 0.3094; log2(FC): -1.6924

Question: Which “Fold Change” value does the source give for `C[C@H](O)[C@H](O)C1=Nc2c(nc(N)[nH]c2=O)NC1` [Dihydrobiopterin] here?
Answer: 1.9833

Question: And the “log2(FC)” value?
Answer: 0.9879

Question: Which “Fold Change” value does the source give for `C/C=C/C(=O)OC(C)(C)Cc1ccccc1` [Dimethylbenzyl carbinyl crotonate] here?
Answer: 45.402

Question: What about the “log2(FC)” value of the same compound?
Answer: 5.5047

Question: With `CCCCCCCCCCCCC/C=C/[C@@H](O)[C@H](CO)N(C)C` [Dimethylsphingosine] as the compound, how does the “Fold Change” value read?
Answer: 5.3643

Question: And the “log2(FC)” value?
Answer: 2.4234
